Reference: PMC4991465
Results are given in words; binding and its absence hold for the method and conditions named. For part of these data: In cells and extracts the contact can be indirect. Some entries that bind do so weakly or less than the wild type. For part of these data: Sequences can lack the tags named with a protein. Values belong to the binder of their own block, whether it stands above or below them.

Assays:
[1] = target: T1, GFP-ARD1A (UniProt P41227); assay: co-IP; in vitro: purified recombinant proteins incubated in RIPA buffer, precipitated with anti-GFP-Trap beads or anti-FLAG M2 beads, Western blot with anti-GFP and anti-FLAG; both purified
T1 sequence: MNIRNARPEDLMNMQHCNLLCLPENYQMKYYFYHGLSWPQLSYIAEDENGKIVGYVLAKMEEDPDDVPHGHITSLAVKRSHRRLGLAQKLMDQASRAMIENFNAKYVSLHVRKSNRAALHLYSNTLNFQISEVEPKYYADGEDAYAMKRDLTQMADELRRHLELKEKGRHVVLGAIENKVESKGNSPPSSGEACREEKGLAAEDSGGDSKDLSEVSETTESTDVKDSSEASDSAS

[2] = target: T2, His-HDAC11 (UniProt Q96DB2); assay: far-Western, overlay or dot blot; purified protein spotted on nitrocellulose at increasing amounts (BSA as control), blocked with 5% milk in TBST, incubated with the purified partner in 5% milk for 3 h at 4°C, bound protein detected with antibody; both purified
T2 sequence: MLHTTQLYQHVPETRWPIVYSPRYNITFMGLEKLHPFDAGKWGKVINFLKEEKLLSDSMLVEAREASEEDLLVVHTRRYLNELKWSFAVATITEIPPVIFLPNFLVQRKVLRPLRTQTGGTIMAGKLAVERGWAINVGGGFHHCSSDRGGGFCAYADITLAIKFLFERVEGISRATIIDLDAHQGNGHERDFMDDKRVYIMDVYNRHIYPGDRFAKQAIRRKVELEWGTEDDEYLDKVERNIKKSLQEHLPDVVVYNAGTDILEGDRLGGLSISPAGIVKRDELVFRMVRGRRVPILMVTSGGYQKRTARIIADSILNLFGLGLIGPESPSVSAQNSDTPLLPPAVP

[3] = target: T1, GFP-ARD1A; assay: as above
[4] = target: T3, endogenous HDAC11 (human (endogenous in HEK 293T)) (UniProt Q96DB2); assay: co-IP; endogenous proteins, HEK 293T lysates in RIPA buffer with DNase I; anti-Cdc25A, anti-ARD1 or anti-HDAC11 with Protein G Plus/Protein A beads, 18 h at 4°C; washes with 200 μg/ml ethidium bromide; normal IgG as control
T3 sequence: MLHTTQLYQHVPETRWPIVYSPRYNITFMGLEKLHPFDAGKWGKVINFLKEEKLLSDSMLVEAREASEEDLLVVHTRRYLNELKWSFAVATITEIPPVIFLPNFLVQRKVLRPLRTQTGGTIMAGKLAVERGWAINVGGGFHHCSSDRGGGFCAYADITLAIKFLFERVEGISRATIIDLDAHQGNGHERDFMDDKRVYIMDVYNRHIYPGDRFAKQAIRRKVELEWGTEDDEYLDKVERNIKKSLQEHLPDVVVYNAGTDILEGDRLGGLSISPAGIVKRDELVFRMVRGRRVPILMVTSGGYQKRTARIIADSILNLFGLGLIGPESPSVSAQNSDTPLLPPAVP

[5] = target: T4, FLAG-Cdc25A (UniProt P30304); assay: far-Western, overlay or dot blot; purified protein spotted on nitrocellulose at increasing amounts (BSA as control), blocked with 5% milk in TBST, incubated with the purified partner in 5% milk for 3 h at 4°C, bound protein detected with antibody; both purified
T4 sequence: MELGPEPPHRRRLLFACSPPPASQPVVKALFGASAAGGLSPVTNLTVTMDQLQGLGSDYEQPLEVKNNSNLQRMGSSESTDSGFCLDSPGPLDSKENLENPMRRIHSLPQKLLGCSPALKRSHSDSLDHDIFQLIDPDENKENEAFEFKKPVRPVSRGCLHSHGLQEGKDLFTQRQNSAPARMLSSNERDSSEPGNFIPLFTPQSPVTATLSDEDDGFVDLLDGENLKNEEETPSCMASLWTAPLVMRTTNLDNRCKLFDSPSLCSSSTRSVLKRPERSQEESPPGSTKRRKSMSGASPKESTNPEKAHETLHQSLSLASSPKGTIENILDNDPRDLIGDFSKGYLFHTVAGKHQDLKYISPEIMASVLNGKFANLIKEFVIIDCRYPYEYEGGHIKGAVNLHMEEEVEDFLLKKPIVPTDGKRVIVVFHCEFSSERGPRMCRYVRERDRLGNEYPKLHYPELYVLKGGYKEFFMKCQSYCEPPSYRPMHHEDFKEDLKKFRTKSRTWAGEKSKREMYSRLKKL

[6] = target: T5, endogenous Cdc25A (human (endogenous in HEK 293T)) (UniProt P30304); assay: co-IP; endogenous proteins, HEK 293T lysates in RIPA buffer with DNase I; anti-Cdc25A, anti-ARD1 or anti-HDAC11 with Protein G Plus/Protein A beads, 18 h at 4°C; washes with 200 μg/ml ethidium bromide; normal IgG as control
T5 sequence: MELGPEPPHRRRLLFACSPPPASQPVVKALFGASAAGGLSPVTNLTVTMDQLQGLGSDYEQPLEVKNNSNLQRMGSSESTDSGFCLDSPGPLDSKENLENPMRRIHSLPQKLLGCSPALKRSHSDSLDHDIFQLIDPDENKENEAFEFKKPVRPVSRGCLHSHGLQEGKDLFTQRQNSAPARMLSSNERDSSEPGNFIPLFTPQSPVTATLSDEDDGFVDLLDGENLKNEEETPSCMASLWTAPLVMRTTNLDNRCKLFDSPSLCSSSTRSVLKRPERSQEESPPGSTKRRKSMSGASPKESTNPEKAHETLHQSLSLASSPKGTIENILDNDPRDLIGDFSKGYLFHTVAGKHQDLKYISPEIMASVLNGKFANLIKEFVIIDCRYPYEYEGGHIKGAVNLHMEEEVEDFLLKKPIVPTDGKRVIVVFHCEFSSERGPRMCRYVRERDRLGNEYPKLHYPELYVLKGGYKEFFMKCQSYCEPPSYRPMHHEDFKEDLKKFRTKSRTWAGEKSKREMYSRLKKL

[7] = target: T4, FLAG-Cdc25A; assay: co-IP; in vitro: purified recombinant proteins incubated in RIPA buffer, precipitated with anti-GFP-Trap beads or anti-FLAG M2 beads, Western blot with anti-GFP and anti-FLAG; both purified
[8] = target: T6, GFP-Cdc25A (UniProt P30304); assay: co-IP; HEK 293T cells co-transfected for 24 h; lysates precipitated with anti-GFP antibody, Western blot
T6 sequence: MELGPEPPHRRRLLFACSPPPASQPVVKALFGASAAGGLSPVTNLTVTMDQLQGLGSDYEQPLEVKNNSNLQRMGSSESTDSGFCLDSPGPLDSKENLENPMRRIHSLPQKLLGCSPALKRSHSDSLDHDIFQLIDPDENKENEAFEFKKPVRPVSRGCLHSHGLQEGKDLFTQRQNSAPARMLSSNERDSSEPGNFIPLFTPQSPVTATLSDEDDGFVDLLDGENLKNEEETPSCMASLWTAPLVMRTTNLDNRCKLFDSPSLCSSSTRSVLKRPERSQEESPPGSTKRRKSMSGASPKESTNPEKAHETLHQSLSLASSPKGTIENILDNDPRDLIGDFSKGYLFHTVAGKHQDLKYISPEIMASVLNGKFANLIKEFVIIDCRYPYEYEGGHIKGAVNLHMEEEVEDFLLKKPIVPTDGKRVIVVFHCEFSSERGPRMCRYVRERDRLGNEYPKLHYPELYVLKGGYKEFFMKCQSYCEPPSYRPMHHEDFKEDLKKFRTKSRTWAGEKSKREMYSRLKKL

B1: FLAG-Cdc25A (enzyme, UniProt P30304 1-524)
chain: MELGPEPPHRRRLLFACSPPPASQPVVKALFGASAAGGLSPVTNLTVTMDQLQGLGSDYEQPLEVKNNSNLQRMGSSESTDSGFCLDSPGPLDSKENLENPMRRIHSLPQKLLGCSPALKRSHSDSLDHDIFQLIDPDENKENEAFEFKKPVRPVSRGCLHSHGLQEGKDLFTQRQNSAPARMLSSNERDSSEPGNFIPLFTPQSPVTATLSDEDDGFVDLLDGENLKNEEETPSCMASLWTAPLVMRTTNLDNRCKLFDSPSLCSSSTRSVLKRPERSQEESPPGSTKRRKSMSGASPKESTNPEKAHETLHQSLSLASSPKGTIENILDNDPRDLIGDFSKGYLFHTVAGKHQDLKYISPEIMASVLNGKFANLIKEFVIIDCRYPYEYEGGHIKGAVNLHMEEEVEDFLLKKPIVPTDGKRVIVVFHCEFSSERGPRMCRYVRERDRLGNEYPKLHYPELYVLKGGYKEFFMKCQSYCEPPSYRPMHHEDFKEDLKKFRTKSRTWAGEKSKREMYSRLKKL
- binding [1]: binds
- binding [2]: binds
- binding [3]: binds

B3: His-HDAC11 (enzyme, UniProt Q96DB2 1-347)
chain: MLHTTQLYQHVPETRWPIVYSPRYNITFMGLEKLHPFDAGKWGKVINFLKEEKLLSDSMLVEAREASEEDLLVVHTRRYLNELKWSFAVATITEIPPVIFLPNFLVQRKVLRPLRTQTGGTIMAGKLAVERGWAINVGGGFHHCSSDRGGGFCAYADITLAIKFLFERVEGISRATIIDLDAHQGNGHERDFMDDKRVYIMDVYNRHIYPGDRFAKQAIRRKVELEWGTEDDEYLDKVERNIKKSLQEHLPDVVVYNAGTDILEGDRLGGLSISPAGIVKRDELVFRMVRGRRVPILMVTSGGYQKRTARIIADSILNLFGLGLIGPESPSVSAQNSDTPLLPPAVP
- binding [5]: binds

B5: GFP-ARD1A (enzyme, UniProt P41227 1-235)
chain: MNIRNARPEDLMNMQHCNLLCLPENYQMKYYFYHGLSWPQLSYIAEDENGKIVGYVLAKMEEDPDDVPHGHITSLAVKRSHRRLGLAQKLMDQASRAMIENFNAKYVSLHVRKSNRAALHLYSNTLNFQISEVEPKYYADGEDAYAMKRDLTQMADELRRHLELKEKGRHVVLGAIENKVESKGNSPPSSGEACREEKGLAAEDSGGDSKDLSEVSETTESTDVKDSSEASDSAS
- binding [7]: binds
- binding [5]: binds

B6: FLAG-tagged ARD1A (enzyme, UniProt P41227 1-235)
chain: MNIRNARPEDLMNMQHCNLLCLPENYQMKYYFYHGLSWPQLSYIAEDENGKIVGYVLAKMEEDPDDVPHGHITSLAVKRSHRRLGLAQKLMDQASRAMIENFNAKYVSLHVRKSNRAALHLYSNTLNFQISEVEPKYYADGEDAYAMKRDLTQMADELRRHLELKEKGRHVVLGAIENKVESKGNSPPSSGEACREEKGLAAEDSGGDSKDLSEVSETTESTDVKDSSEASDSAS
- binding [8]: binds

Continued, values first:

- binding [4]: binds
B2: endogenous Cdc25A (enzyme, UniProt P30304 1-524)
chain: MELGPEPPHRRRLLFACSPPPASQPVVKALFGASAAGGLSPVTNLTVTMDQLQGLGSDYEQPLEVKNNSNLQRMGSSESTDSGFCLDSPGPLDSKENLENPMRRIHSLPQKLLGCSPALKRSHSDSLDHDIFQLIDPDENKENEAFEFKKPVRPVSRGCLHSHGLQEGKDLFTQRQNSAPARMLSSNERDSSEPGNFIPLFTPQSPVTATLSDEDDGFVDLLDGENLKNEEETPSCMASLWTAPLVMRTTNLDNRCKLFDSPSLCSSSTRSVLKRPERSQEESPPGSTKRRKSMSGASPKESTNPEKAHETLHQSLSLASSPKGTIENILDNDPRDLIGDFSKGYLFHTVAGKHQDLKYISPEIMASVLNGKFANLIKEFVIIDCRYPYEYEGGHIKGAVNLHMEEEVEDFLLKKPIVPTDGKRVIVVFHCEFSSERGPRMCRYVRERDRLGNEYPKLHYPELYVLKGGYKEFFMKCQSYCEPPSYRPMHHEDFKEDLKKFRTKSRTWAGEKSKREMYSRLKKL

- binding [6]: binds
B4: endogenous HDAC11 (enzyme, UniProt Q96DB2 1-347)
chain: MLHTTQLYQHVPETRWPIVYSPRYNITFMGLEKLHPFDAGKWGKVINFLKEEKLLSDSMLVEAREASEEDLLVVHTRRYLNELKWSFAVATITEIPPVIFLPNFLVQRKVLRPLRTQTGGTIMAGKLAVERGWAINVGGGFHHCSSDRGGGFCAYADITLAIKFLFERVEGISRATIIDLDAHQGNGHERDFMDDKRVYIMDVYNRHIYPGDRFAKQAIRRKVELEWGTEDDEYLDKVERNIKKSLQEHLPDVVVYNAGTDILEGDRLGGLSISPAGIVKRDELVFRMVRGRRVPILMVTSGGYQKRTARIIADSILNLFGLGLIGPESPSVSAQNSDTPLLPPAVP
